Results on 1 molecule are retold here after paper PMC11256664.

Protein sequences, listed by entry. Tags and fused reporters are not part of them.
UniProt P49023: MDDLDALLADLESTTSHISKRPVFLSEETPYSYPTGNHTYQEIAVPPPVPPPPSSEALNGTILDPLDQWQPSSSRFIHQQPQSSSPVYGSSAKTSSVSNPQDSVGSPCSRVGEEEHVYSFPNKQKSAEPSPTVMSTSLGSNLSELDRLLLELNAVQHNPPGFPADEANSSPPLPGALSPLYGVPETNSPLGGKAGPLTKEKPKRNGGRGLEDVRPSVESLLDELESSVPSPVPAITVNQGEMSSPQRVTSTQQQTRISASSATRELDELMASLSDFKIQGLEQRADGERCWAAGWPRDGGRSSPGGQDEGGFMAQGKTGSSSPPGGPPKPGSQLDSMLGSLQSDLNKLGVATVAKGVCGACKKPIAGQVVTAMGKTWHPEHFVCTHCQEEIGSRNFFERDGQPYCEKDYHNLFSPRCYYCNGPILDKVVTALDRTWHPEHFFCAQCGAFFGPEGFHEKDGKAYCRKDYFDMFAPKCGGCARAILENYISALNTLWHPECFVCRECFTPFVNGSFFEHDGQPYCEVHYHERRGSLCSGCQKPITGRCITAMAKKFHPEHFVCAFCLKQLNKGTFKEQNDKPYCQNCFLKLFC

The target in the test is paxillin (human (endogenous in hTERT-MSCs)) (UniProt P49023). Nature of the test: co-IP; hTERT-MSC lysate (Pierce IP Lysis Buffer with protease/phosphatase inhibitors) incubated overnight at 4 °C with magnetic beads and 1 µg paxillin antibody; eluates blotted with paxillin and PTPRK antibodies.

No constants are given. Whether binding was seen depends on the method and setting. Binding seen in cells or lysates may run through a third protein. Some results given as binding are weak or reduced against the parent protein; the word gives no strength.

B1: protein tyrosine phosphatase receptor type kappa (protein, UniProt Q15262 27-1439)
chain: AQGQFSAGGCTFDDGPGACDYHQDLYDDFEWVHVSAQEPHYLPPEMPQGSYMIVDSSDHDPGEKARLQLPTMKENDTHCIDFSYLLYSQKGLNPGTLNILVRVNKGPLANPIWNVTGFTGRDWLRAELAVSTFWPNEYQVIFEAEVSGGRSGYIAIDDIQVLSYPCDKSPHFLRLGDVEVNAGQNATFQCIATGRDAVHNKLWLQRRNGEDIPVAQTKNINHRRFAASFRLQEVTKTDQDLYRCVTQSERGSGVSNFAQLIVREPPRPIAPPQLLGVGPTYLLIQLNANSIIGDGPIILKEVEYRMTSGSWTETHAVNAPTYKLWHLDPDTEYEIRVLLTRPGEGGTGLPGPPLITRTKCAEPMRTPKTLKIAEIQARRIAVDWESLGYNITRCHTFNVTICYHYFRGHNESKADCLDMDPKAPQHVVNHLPPYTNVSLKMILTNPEGRKESEETIIQTDEDVPGPVPVKSLQGTSFENKIFLNWKEPLDPNGIITQYEISYSSIRSFDPAVPVAGPPQTVSNLWNSTHHVFMHLHPGTTYQFFIRASTVKGFGPATAINVTTNISAPTLPDYEGVDASLNETATTITVLLRPAQAKGAPISAYQIVVEELHPHRTKREAGAMECYQVPVTYQNAMSGGAPYYFAAELPPGNLPEPAPFTVGDNRTYQGFWNPPLAPRKGYNIYFQAMSSVEKETKTQCVRIATKAATEEPEVIPDPAKQTDRVVKIAGISAGILVFILLLLVVILIVKKSKLAKKRKDAMGNTRQEMTHMVNAMDRSYADQSTLHAEDPLSITFMDQHNFSPRYENHSATAESSRLLDVPRYLCEGTESPYQTGQLHPAIRVADLLQHINLMKTSDSYGFKEEYESFFEGQSASWDVAKKDQNRAKNRYGNIIAYDHSRVILQPVEDDPSSDYINANYIDGYQRPSHYIATQGPVHETVYDFWRMIWQEQSACIVMVTNLVEVGRVKCYKYWPDDTEVYGDFKVTCVEMEPLAEYVVRTFTLERRGYNEIREVKQFHFTGWPDHGVPYHATGLLSFIRRVKLSNPPSAGPIVVHCSAGAGRTGCYIVIDIMLDMAEREGVVDIYNCVKALRSRRINMVQTEEQYIFIHDAILEACLCGETAIPVCEFKAAYFDMIRIDSQTNSSHLKDEFQTLNSVTPRLQAEDCSIACLPRNHDKNRFMDMLPPDRCLPFLITIDGESSNYINAALMDSYRQPAAFIVTQYPLPNTVKDFWRLVYDYGCTSIVMLNEVDLSQGCPQYWPEEGMLRYGPIQVECMSCSMDCDVINRIFRICNLTRPQEGYLMVQQFQYLGWASHREVPGSKRSFLKLILQVEKWQEECEEGEGRTIIHCLNGGGRSGMFCAIGIVVEMVKRQNVVDVFHAVKTLRNSKPNMVEAPEQYRFCYDVALEYLESS
Consider B1, for which the binding result is reported as “binds”.
